Reference: publication PMC4746285, “Functional Analysis of the Citrate Activator CitO from Enterococcus faecalis Implicates a Divalent Metal in Ligand Binding” (Frontiers in Microbiology, 2016)

Test system: CitO-wt (Enterococcus faecalis)
Experiment: EMSA
Conditions: 5 mM citrate, binding unaffected by metal, recombinant protein, protein details: His-tag (pET-citO), label: 5' biotin, probe letters rebuilt from the primers and the genome

Measured: binding result

GGTATACGTTCATTATAGAAAAAACCGTTAAAAAACCTAGTGAAAACACTAGCTCAGATTGTTCTTTTATTGTTTATTTTGTGAAAAAAACTCTGTAAACATTGGTATATAAGCATTTATCAGCCGTTAAGATTCTATTAATATTATATTAAGTTATTAATAAGAATTTGATTGTTGAATTGTTTTTTTGATGTTCTTTTTGTTTTAGGCTATTTATTCTCTGCGAAAGTTTGTATATTCTCACAC (double strand) [PcitH-CL]
binds: 2 mM Ca2+ | 2 mM Mg2+ | 2 mM Mn2+ | 2 mM Ni2+ | 2 mM Zn2+

Construct, isoform or probe ends are uncertain for at least one entry. At least one verdict rests on a figure or table, not on a statement of the authors.
